Experimental data reported in patent CN108503707A.
Results are given in words; binding and its absence hold for the method and conditions named. Some binding calls cover weakened binding; strength is not graded here.

The chains behind the UniProt entries cited, without tags or fusion partners. Residues count along the entry.
UniProt P13664, residues 48-306: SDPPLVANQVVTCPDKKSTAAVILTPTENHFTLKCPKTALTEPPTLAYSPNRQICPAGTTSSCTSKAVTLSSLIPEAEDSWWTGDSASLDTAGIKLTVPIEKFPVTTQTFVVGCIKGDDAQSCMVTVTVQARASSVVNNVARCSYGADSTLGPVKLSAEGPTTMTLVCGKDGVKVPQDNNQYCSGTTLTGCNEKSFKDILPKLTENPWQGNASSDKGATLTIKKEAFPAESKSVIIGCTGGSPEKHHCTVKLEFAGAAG

Target: 弓形虫重组SAG1蛋白(表面膜抗原1) (Toxoplasma gondii) (UniProt P13664)
Test: phage ELISA screen on coated SAG1

B1: 1号克隆株抗SAG1纳米抗体 (VHH)
VHH: HVQLVESGGGSVQAGGSLKLSCTASGYTSNNNCMAWYRQAPGKEPEGVAGIDSEGTTRYADSVKGRFTISKDNAKNTLYLQMNSLKPEDTGMYYCGAGPDRPARCQYDVWGQGTQVTVSS
  binding: binds
